The target of one test is T1, ECHANGEUR D'ANIONS (Homo sapiens, UniProt P02730).
T1 construct: systèmes de transport du sodium et du potassium des érythrocytes humains; endogenous in cells; host or cells: human erythrocytes
T1 sequence (P02730 1-911): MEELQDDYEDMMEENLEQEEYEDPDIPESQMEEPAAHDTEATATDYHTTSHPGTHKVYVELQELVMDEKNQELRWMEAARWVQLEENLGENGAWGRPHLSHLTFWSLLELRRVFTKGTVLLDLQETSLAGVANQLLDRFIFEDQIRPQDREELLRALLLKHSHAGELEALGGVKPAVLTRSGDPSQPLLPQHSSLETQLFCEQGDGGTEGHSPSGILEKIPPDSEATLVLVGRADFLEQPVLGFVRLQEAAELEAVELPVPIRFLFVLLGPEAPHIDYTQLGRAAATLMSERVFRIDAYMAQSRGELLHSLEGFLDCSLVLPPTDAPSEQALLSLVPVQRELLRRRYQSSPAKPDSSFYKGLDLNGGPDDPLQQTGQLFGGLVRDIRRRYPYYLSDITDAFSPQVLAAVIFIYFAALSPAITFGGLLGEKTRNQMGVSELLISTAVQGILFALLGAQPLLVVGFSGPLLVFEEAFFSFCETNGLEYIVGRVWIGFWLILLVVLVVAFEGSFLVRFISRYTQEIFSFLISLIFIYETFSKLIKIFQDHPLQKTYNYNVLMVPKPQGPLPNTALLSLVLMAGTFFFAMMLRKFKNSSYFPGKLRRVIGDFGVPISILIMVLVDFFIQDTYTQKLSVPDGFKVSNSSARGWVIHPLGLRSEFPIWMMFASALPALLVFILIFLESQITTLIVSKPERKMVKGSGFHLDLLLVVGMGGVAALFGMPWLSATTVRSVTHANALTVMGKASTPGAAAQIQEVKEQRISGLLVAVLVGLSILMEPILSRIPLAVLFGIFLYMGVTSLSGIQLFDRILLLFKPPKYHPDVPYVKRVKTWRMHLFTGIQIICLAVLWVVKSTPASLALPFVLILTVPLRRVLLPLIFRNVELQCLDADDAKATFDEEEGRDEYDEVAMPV
In words: Anion exchanger of human erythrocytes. Format: cell-based, ERYTHROCYTES HUMAINS. Conditions: read-out: EFFET SUR L'ECHANGEUR D'ANIONS IC 50. An excerpt: Cet effet a été étudié selon la méthodologie décrite par G. GARAY et coll. dans Naunyn-Schmidberg's Arch. Pharmakol. 334 (1986) 202-209 et dans Bioch. Pharm. 33 (1984) 2013-2020.

Another test deals with T2, COTRANSPORT Na-K (Homo sapiens, UniProt P55011).
T2 construct: systèmes de transport du sodium et du potassium des érythrocytes humains; endogenous in cells; host or cells: human erythrocytes
T2 sequence (P55011 1-1212): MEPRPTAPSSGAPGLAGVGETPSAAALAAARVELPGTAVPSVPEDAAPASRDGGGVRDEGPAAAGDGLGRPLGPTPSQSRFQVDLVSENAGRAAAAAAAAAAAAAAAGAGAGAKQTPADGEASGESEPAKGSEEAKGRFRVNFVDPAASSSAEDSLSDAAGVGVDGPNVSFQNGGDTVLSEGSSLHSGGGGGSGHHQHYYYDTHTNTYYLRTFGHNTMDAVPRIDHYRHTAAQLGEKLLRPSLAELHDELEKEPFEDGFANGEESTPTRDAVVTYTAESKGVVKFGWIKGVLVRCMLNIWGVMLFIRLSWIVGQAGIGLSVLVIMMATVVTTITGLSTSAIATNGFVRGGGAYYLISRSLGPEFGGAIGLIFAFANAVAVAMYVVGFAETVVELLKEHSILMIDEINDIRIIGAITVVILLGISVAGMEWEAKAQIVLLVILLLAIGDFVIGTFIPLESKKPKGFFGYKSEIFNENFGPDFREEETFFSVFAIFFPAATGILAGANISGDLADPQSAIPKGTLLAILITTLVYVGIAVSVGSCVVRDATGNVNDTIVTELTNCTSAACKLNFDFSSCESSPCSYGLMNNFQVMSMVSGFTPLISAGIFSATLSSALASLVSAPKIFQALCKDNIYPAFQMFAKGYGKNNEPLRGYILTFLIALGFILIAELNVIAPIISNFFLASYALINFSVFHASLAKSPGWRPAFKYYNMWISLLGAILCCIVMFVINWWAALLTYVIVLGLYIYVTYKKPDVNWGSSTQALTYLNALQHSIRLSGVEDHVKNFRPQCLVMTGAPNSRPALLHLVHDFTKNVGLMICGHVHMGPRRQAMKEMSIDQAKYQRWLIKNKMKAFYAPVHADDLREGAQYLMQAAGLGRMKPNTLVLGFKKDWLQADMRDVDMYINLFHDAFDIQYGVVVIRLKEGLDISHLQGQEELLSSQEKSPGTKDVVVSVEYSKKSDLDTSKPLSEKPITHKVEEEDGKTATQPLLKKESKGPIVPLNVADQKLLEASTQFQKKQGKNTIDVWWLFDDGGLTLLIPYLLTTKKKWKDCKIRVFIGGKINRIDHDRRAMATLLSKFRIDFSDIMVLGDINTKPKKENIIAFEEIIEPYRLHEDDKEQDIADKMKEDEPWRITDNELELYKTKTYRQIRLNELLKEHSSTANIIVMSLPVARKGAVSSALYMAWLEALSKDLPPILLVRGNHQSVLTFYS
In words: Na-K cotransport of human erythrocytes. It counts as cell-based, ERYTHROCYTES HUMAINS. Conditions: read-out: EFFET SUR LE COTRANSPORT Na-K IC 50. An excerpt: Cet effet a été étudié selon la méthodologie décrite par G. GARAY et coll. dans Naunyn-Schmidberg's Arch. Pharmakol. […] Pharm.

Each structure is given as a SMILES string.

Consider one compound from patent publication EP0428423A2, “Aryloxy alkyl benzenes, processes for their preparation and pharmaceutical compositions containing them” (LIPHA S.A., priority 1989, dated 1991).

In the case of `NS(=O)(=O)c1cc(C(=O)O)c(NCc2ccco2)cc1Cl` [FUROSEMIDE, reference compound], the IC50 was 200 µM on ECHANGEUR D'ANIONS and 37 µM on COTRANSPORT Na-K.
